Laboratory results as given in PubChem BioAssay AID2685 (National Center for Advancing Translational Sciences (NCATS), 2010).
Some of the results follow. These are further read-outs of the screen, such as a control signal, another cell line or another target. No call is given for them. Most of these compounds were active or inconclusive in the main read-out, so they are no random draw. The note in brackets gives the kind of curve behind each potency; many fits are weak.

Assay: qHTS Assay for Lipid Storage Modulators in Drosophila S3 Cells;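 as to cell number change: cells counted by Cell Tracker Red CMTPX staining in the red channel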
Details: BODIPY lipid droplet fluorescence, 18-24 h; for cell number change: measured here: cell count max response, cells fed with added oleic acid
Summary of the method: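 Laser-scanning cytometry quantifies lipid droplet accumulation (500–530 nm total intensity; droplet/cell object ratio) in oleic acid-fed (400 uM added) Drosophila S3 cells treated with a concentration series. 20 uM Triacsin C defined 100% inhibition.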

[1] = measured here: cell number channel AC50, cells fed with added oleic acid
[2] = measured here: lipid fluorescence (Fed channel) AC50, cells fed with added oleic acid

For Cc1c(CCC(=O)N[C@@H](CC(C)C)C(=O)O)c(=O)oc2c(C)c3oc4c(c3cc12)CCCC4, the cell number change was -3.55% and the AC50 [1] was 5.17 µM [rising, single point].
In the case of Cc1cccc(N2CCN(C(=O)CS(=O)(=O)Cc3nc(-c4ccccc4F)oc3C)CC2C)c1 (centres undefined), the cell number change is reported as -13.9%, the AC50 [1] is reported as 2.06 µM [rising, partial curve] and the AC50 [2] is reported as 3.66 µM [rising, full curve].
With O=C(CSc1nc2ccccc2c(=O)n1CC1CCCO1)Nc1ccccc1Cl (centres undefined) the cell number change was -2.5% and the AC50 [2] was 4.11 µM [falling, single point].
In the case of COC(=O)c1ccccc1NC(=O)CN1CCOCC1, the cell number change is reported as -7.67%, the AC50 [1] is reported as 0.259 µM [falling, full curve] and the AC50 [2] is reported as 0.731 µM [falling, full curve].
With c1ccc(CCn2nnnc2CN2CCc3ccccc32)cc1 the cell number change was -14.2% and the AC50 [2] was 6.51 µM [rising, single point].
CC(C)Sc1nc(N)c2c3c(sc2n1)CN(C)CC3 showed a cell number change of 2.19%.
With S=c1[nH]nc(C2CCCCC2)n1/N=C/c1ccco1 the cell number change was 6.97% and the AC50 [2] was 23.1 µM [rising, single point].
For CCN1CCN(C(=S)c2ccc(OCC(=O)N3CCOCC3)cc2)CC1, the cell number change was 1.78% and the AC50 [2] was 4.61 µM [falling, full curve, poor fit].
In the case of COc1ccc(N2CCN(S(=O)(=O)CCNC(=O)C3CC3)CC2)cc1, the cell number change is reported as -67.3% and the AC50 [1] is reported as 29.1 µM [falling, single point].
Compound Cc1ccccc1NC(=S)N1CCCCCC1 has a cell number change of 6.65%.
In the case of Cc1nn(C)cc1CNC(=O)Nc1ccc(Cl)c(Cl)c1, the AC50 [1] is reported as 2.31 µM [rising, partial curve] and the AC50 [2] is reported as 2.91 µM [rising, partial curve].
For COc1ccccc1CNc1ccc2nnc(CCNC(=O)c3ccc(C)cc3)n2n1, the cell number change was -5.07% and the AC50 [2] was 0.0461 µM [rising, single point].
In the case of Cc1cccc(OCC(=O)NC(Cc2ccccc2)C(=O)O)c1 (centres undefined), the cell number change is reported as -5.93%, the AC50 [1] is reported as 6.51 µM [rising, single point] and the AC50 [2] is reported as 6.51 µM [rising, single point].
In the case of Cc1ccsc1/C=N/n1c(-c2ccncc2)n[nH]c1=S, the AC50 [1] is reported as 0.651 µM [rising, full curve].
In the case of COCCNC(=O)c1c[nH]c2ccc(S(=O)(=O)N3CCC4(CC3)OCCO4)cc2c1=O, the AC50 [1] is reported as 0.82 µM [rising, full curve, poor fit].
For CCn1cnnc1SCC(=O)NCC1COc2ccccc2O1 (centres undefined), the cell number change was -12.6% and the AC50 [2] was 1.46 µM [falling, full curve].
For CCOC(=O)N1CCN(c2ccnc3cc(Cl)ccc23)CC1, the cell number change was 30.3% and the AC50 [1] was 20.6 µM [rising, partial curve, poor fit].
For CCOC(=O)C1CCN(C(=O)c2ccc(OCC(=O)Nc3cccc(C(F)(F)F)c3)cc2)CC1, the cell number change was -28.7% and the AC50 [2] was 20.6 µM [falling, single point].
In the case of c1ccc(C[C@H]2CNCCN2CCCCC2CCCCC2)cc1, the cell number change is reported as -24.3%, the AC50 [1] is reported as 0.731 µM [falling, full curve, poor fit] and the AC50 [2] is reported as 1.03 µM [falling, partial curve].
O=C1CN(c2ccccc2Cl)C(=O)CN1c1ccccc1Cl gave a cell number change of 2.8%.
In the case of COc1ccc(/C=C2\SC(=S)N(CCC(=O)NC3=NCCS3)C2=O)cc1OC, the cell number change is reported as -5.62% and the AC50 [2] is reported as 3.66 µM [rising, full curve].
For CCOc1ccc(Nc2cc(=O)n(C)c(=O)n2C)cc1, the cell number change was 16.8% and the AC50 [2] was 6.51 µM [rising, single point].
With CC(OC(=O)/C=C/c1ccccc1)C(=O)NC1CCCCC1C (centres undefined) the cell number change was -0.141% and the AC50 [2] was 29.1 µM [falling, single point].
For COC(=O)C1CCN(C2=C(NS(=O)(=O)c3ccc(Cl)cc3)C(=O)c3ccccc3C2=O)CC1, the cell number change was -58.8%, the AC50 [1] was 29.1 µM [falling, single point] and the AC50 [2] was 18.4 µM [falling, partial curve].
For Cc1ccc(S(=O)(=O)N2CCN(C(=O)CCC(=O)OCC(=O)Nc3cccc(C#N)c3)CC2)cc1, the cell number change was 43%, the AC50 [1] was 16.4 µM [rising, single point] and the AC50 [2] was 29.1 µM [rising, single point].
In the case of CC(C)OCCCNC(=S)Nc1ccc2nc3n(c(=O)c2c1)CCCCC3, the AC50 [1] is reported as 6.51 µM [rising, single point] and the AC50 [2] is reported as 2.06 µM [rising, partial curve].
For Cc1ccc(S(=O)(=O)NC(CC(C)C)C(=O)NCCCn2nc(C)cc2C)cc1 (centres undefined), the cell number change was -4.15% and the AC50 [2] was 0.231 µM [rising, full curve].
In the case of Oc1cccc(/C=N/Nc2cc(N3CCCC3)nc(N3CCCC3)n2)c1, the cell number change is reported as 6.31% and the AC50 [2] is reported as 8.2 µM [falling, partial curve, poor fit].
In the case of CC(=O)C(C)n1cnc2scc(-c3ccc(C)cc3)c2c1=O (centres undefined), the cell number change is reported as -6.87% and the AC50 [2] is reported as 29.1 µM [falling, single point].
For O=c1[nH]c(/C=C/c2ccc([N+](=O)[O-])cc2)c([N+](=O)[O-])c(=O)[nH]1, the cell number change was 13% and the AC50 [2] was 10.3 µM [rising, partial curve].
In the case of CCOc1ccc(N(Cc2cc3ccc(C)cc3[nH]c2=O)S(C)(=O)=O)cc1, the cell number change is reported as 0.62% and the AC50 [1] is reported as 1.64 µM [rising, partial curve].
In the case of CN(C)C(CNC(=O)Nc1cccc(Cl)c1)c1cccnc1 (centres undefined), the AC50 [2] is reported as 0.651 µM [rising, single point].
For Cc1cc(SCc2ccc(Cl)c(Cl)c2)nc(=O)[nH]1, the cell number change was 29.7% and the AC50 [2] was 6.51 µM [falling, single point].
For Cc1cc(SCC(=O)NC2CCCCC2)nc2ccccc12, the cell number change was -2.25% and the AC50 [2] was 0.58 µM [rising, single point].
In the case of O=C(CNCc1cccs1)Nc1ccc(OC(F)(F)F)cc1, the cell number change is reported as -44.8%, the AC50 [1] is reported as 18.4 µM [falling, single point] and the AC50 [2] is reported as 29.1 µM [falling, single point].
For CCCc1c2ccccc2nc2ccccc12, the cell number change was -0.485% and the AC50 [2] was 6.51 µM [rising, single point].
For COc1ccc(S(=O)(=O)N2CCCCCC2)cc1C(=O)NC1(C)CCS(=O)(=O)C1 (centres undefined), the cell number change was 1.05% and the AC50 [2] was 0.164 µM [rising, full curve, poor fit].
With Cc1cc(N2CCOCC2)nc(N)n1 the cell number change was 7.13% and the AC50 [2] was 0.116 µM [falling, full curve, poor fit].
In the case of CNc1snc(C)c1C(=O)OCC(=O)c1ccc(OC)c(F)c1, the cell number change is reported as -2.15% and the AC50 [2] is reported as 29.1 µM [falling, partial curve, poor fit].
With COc1cccc(NC(=O)C(C#N)Cc2ccncc2)c1 (centres undefined) the cell number change was -4.14% and the AC50 [2] was 0.92 µM [falling, full curve, poor fit].
For O=C(C[n+]1ccsc1)c1ccccc1, the cell number change was -8.61%, the AC50 [1] was 0.00461 µM [falling, full curve, poor fit] and the AC50 [2] was 0.651 µM [falling, full curve, poor fit].
For Clc1ccc(SCCCCN2CCOCC2)cc1, the cell number change was -31.6% and the AC50 [1] was 0.164 µM [falling, full curve, poor fit].
With Cc1cc(C)n(C(=O)CNC(=O)c2cccs2)n1 the cell number change was 1.73% and the AC50 [2] was 3.66 µM [falling, single point].
In the case of CCOc1ccc(C(=O)OCC(=O)c2c(N)n(C)c(=O)n(C)c2=O)cc1OCC, the AC50 [1] is reported as 3.66 µM [rising, single point] and the AC50 [2] is reported as 6.51 µM [rising, partial curve, poor fit].
Work on CCN(CC)S(=O)(=O)c1cc(C(=O)Nc2nncs2)c(Cl)cc1Cl yielded a cell number change of 9.64%.
With COc1ccc(/C=N\NC(=O)C2COc3ccccc3O2)cc1O (centres undefined) the cell number change was 0.819% and the AC50 [2] was 2.91 µM [rising, full curve, poor fit].
With CN(C)c1ccc(C(=S)NCc2ccco2)cc1 the AC50 [2] was 0.411 µM [rising, partial curve, poor fit].
In the case of CC(=O)N1CCc2ccc(S(=O)(=O)N3CC(C)OC(C)C3)cc21 (centres undefined), the cell number change is reported as -30.3% and the AC50 [1] is reported as 2.91 µM [rising, single point].
CC(C)CNC(=O)CSc1nc(-c2cccs2)cc(C(F)(F)F)n1 showed a cell number change of -21.6%.
In the case of COc1ccc(/C=C/C(=O)NCCOc2ccccc2OC)cc1, the AC50 [2] is reported as 2.06 µM [rising, single point].
For CC1(C)Cc2c(sc(NC(=O)c3ccc(Br)o3)c2C#N)CO1, the cell number change was 15.2% and the AC50 [2] was 10.3 µM [rising, partial curve, poor fit].
In the case of Cc1cccc(C)c1NC(=O)CNC(=O)c1ccccc1, the cell number change is reported as -6.67%.
CC(=O)Nc1ccc(NC(=S)NC(=O)c2oc3ccccc3c2C)cc1 showed a cell number change of -18.3%.
With CCC(OC(=O)c1ccco1)C(=O)NCc1ccc(C)cc1 (centres undefined) the cell number change was -3.84% and the AC50 [2] was 16.4 µM [rising, single point].
With Cc1ccc(CN=Cc2[nH]c3ccc(Br)c(Cl)c3c2O)cc1 the cell number change was 41.6% and the AC50 [2] was 29.1 µM [rising, single point].
In the case of CC(Sc1nnc(C2CC2)n1C1CC1)C(=O)N(C)Cc1cccc(F)c1 (centres undefined), the cell number change is reported as -16.4% and the AC50 [2] is reported as 6.51 µM [falling, single point].
For Cc1cc(C)c(OC2(c3ccccc3)OC(=O)c3ccccc32)c(C)c1 (centres undefined), the cell number change was -12.9% and the AC50 [1] was 0.116 µM [rising, full curve, poor fit].
In the case of O=C(CCS(=O)(=O)Cc1ccccc1)NCc1ccco1, the cell number change is reported as -44.9%, the AC50 [1] is reported as 3.66 µM [falling, full curve] and the AC50 [2] is reported as 3.66 µM [falling, full curve].
With Cn1cnnc1SCCOc1ccc(Cl)cc1 the cell number change was 33.8%, the AC50 [1] was 0.103 µM [rising, full curve, poor fit] and the AC50 [2] was 18.4 µM [rising, single point].
For CCCCn1c(SCC(=O)Nc2ccc3c(c2)OCO3)nc2c1c(=O)n(C)c(=O)n2C, the cell number change was -32%, the AC50 [1] was 1.84 µM [falling, full curve, poor fit] and the AC50 [2] was 16.4 µM [falling, partial curve].
